Laboratory results taken from PubChem BioAssay AID1688 (National Center for Advancing Translational Sciences (NCATS), 2009).
In all, about 220,000 compounds went through this assay and about 2,400 (1.1%) were called active. The shares of active, inactive and inconclusive entries below differ from those in the screen. Calls come from the whole dose curve; as a rule, active = well fitted inhibition curve with a large enough effect; inconclusive = small, poorly fitted or top-dose-only effect, or effect the other way; inactive = no such curve, though single readings can be large or run the other way. A potency beside an inconclusive call is a rough fit, not a confirmed value.

Assay: qHTS Multiplex Assay to Identify Dual Action Probes in a Cell Model of Huntington: Aggregate Formation (GFP); note: nearly all actives have a fitted effect of over 60% in size
Details: PC12 HttQ103-GFP aggregates, Acumen cytometry, 40 h; activity change, negative = inhibition: at 46.1 µM (top of the series) unless noted
Outline: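 Inducible Q103 Huntingtin exon 1–GFP PC12 line, 1500 cells/well in phenol red free DMEM with 5% equine and 5% calf serum. Tebufenozide 100 nM induced expression; compounds titrated; aggregates quantified by cytometry.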
% is set by controls: 0 for no effect and ±100 for the full control effect; potency is the fitted concentration of half-maximal effect.

SMILES | Potency | activity change, negative = inhibition
c1ccc(CSc2ncnc3ccccc23)cc1 | inconclusive: 11.2 µM [inhibitor, single point] | 
CCC1(C)Cc2c(sc3nnn(CC(=O)Nc4ccc(Cl)cc4)c(=O)c23)CO1 (stereo unspecified) | inconclusive: 35.5 µM [inhibitor, single point] | 
Cc1ccc(/C=C2\CCOC2=O)cc1 |  | inactive: 13.7% [at 9.22 µM]
C=CCN1C(c2ccccc2)=CS/C1=C(\C#N)c1nnc2n1CCCCC2 | inconclusive: 11.2 µM [inhibitor, partial curve] | 
COc1ccc(S(=O)(=O)N2CCCC(C(=O)NCc3ccncc3)C2)cc1Cl (stereo unspecified) | inconclusive: 3.16 µM [inhibitor, partial curve] | 
C/C(=N\NC(N)=S)c1ccc(Cl)s1 | inconclusive: 11.2 µM [activator, partial curve] | 
Cc1ccccc1NS(=O)(=O)c1cc(C(=O)NCCSC2CCCCC2)ccc1C | inconclusive: 31.6 µM [inhibitor, single point] | 
CC1(C)CC(=O)C(CC2=C(O)CC(C)(C)CC2=O)C(=O)C1 | inactive | 
O=C(NC1CCCCC1)C(c1ccco1)N(Cc1cccnc1)C(=O)C1COc2ccccc2O1 (stereo unspecified) | inconclusive: 5.01 µM [activator, single point] | 
O=C1CC(=O)N(CCc2ccccc2)C(=O)N1CCc1ccccc1 | active: 0.398 µM | 
NC(=O)c1ccc(Sc2nnc(-c3cccs3)n2CC2CCCO2)c([N+](=O)[O-])c1 (stereo unspecified) | inconclusive: 5.62 µM [inhibitor, single point] | 
C=CCn1c(=N)c(C(=O)NCCCOC)cc2c(=O)n3cc(C)ccc3nc21 | inconclusive: 25.1 µM [activator, single point] | 
C=CCN1C(=O)C(Cc2ccc(OCC)cc2)SC1=Nc1ccc(C(=O)O)cc1 (stereo unspecified) | inconclusive: 5.62 µM [inhibitor, single point] | 
NC(=O)c1csc(-c2ccncc2)n1 | inactive | 
O=C(Nc1ccc2c(c1)OCCO2)C1CCN(S(=O)(=O)c2ccc(Br)s2)CC1 | inconclusive: 35.5 µM [inhibitor, single point] | 
CCCn1c2ccc(/C(C)=N\O)cc2c2cc(/C(C)=N/O)ccc21 | inconclusive: 4.47 µM [activator, partial curve] | 
CCCCNC(=S)NCCN1CCCCC1 | inactive | 
Cc1cc(C(=O)Cn2nnc3ccccc3c2=O)c(C)n1-c1ccccc1F | inconclusive: 35.5 µM [inhibitor, single point] | 
CCn1c(CNC(C)=O)nnc1SCC(=O)c1ccc(Br)cc1 | inconclusive: 20 µM [activator, single point] | 
CCN1CC(CNCc2cn(-c3ccc(OC)cc3)nc2-c2ccccc2Cl)CC1=O (stereo unspecified) | inconclusive: 17.8 µM [activator, partial curve] | 
COc1ccc(-c2cc(CCCC(=O)N3CCN(c4ccc(OC)cc4)CC3)no2)cc1 | inconclusive: 25.1 µM [inhibitor, single point] | 
O=C(NNC(=O)c1cccc(O)c1)Nc1ccc([N+](=O)[O-])cc1 | inactive | 
Cn1nc(-c2ccccc2)c2nc3ccccc3nc21 | inconclusive: 1.58 µM [inhibitor, partial curve, poor fit] | 

Reformatted with tabs: part of the list above.
SMILES	Potency	activity change, negative = inhibition
c1ccc(CSc2ncnc3ccccc23)cc1	inconclusive: 11.2 µM [inhibitor, single point]	
CC1(C)CC(=O)C(CC2=C(O)CC(C)(C)CC2=O)C(=O)C1	inactive	

Next compounds

SMILES | Potency | activity change, negative = inhibition
O=[N+]([O-])c1ccc2[nH]nc(-c3ccccc3)c2c1 | inactive | 
Cc1ccccc1Nc1cc(C)c2c(O)cccc2n1 | inconclusive: 5.62 µM [inhibitor, partial curve] | 
CCC(=O)NC(=S)Nc1ccc(NC(=O)COc2ccccc2)cc1 | inactive | 
CCOC(=O)C1(CCCc2ccccc2)CCN(C(=O)c2ocnc2C)CC1 | inactive | 
CCNC(=O)CSc1nnc(-c2ccc(OC)cc2)n1CC(C)C | inconclusive: 0.562 µM [activator, full curve, poor fit] | 
Cc1ccc(S(=O)(=O)Nc2ccc(Cl)cc2)cc1NC(=O)c1cc2c(s1)CCCC2 | inconclusive: 35.5 µM [inhibitor, single point] | 
Cc1cccc(-n2nnc(C(=O)NC3CCCc4ccccc43)c2N)c1 (stereo unspecified) | inconclusive: 8.91 µM [inhibitor, partial curve] | 
Cc1ccc(-n2nc(-c3ccco3)cc2C(=O)O)c(C)c1 | inactive | 
O=C(Cc1ccccc1)NNc1ccc2ccccc2c1 | inconclusive: 35.5 µM [inhibitor, single point] | 
CN1CCN(c2nc(C(N)=O)cc(-c3ccccc3)n2)CC1 | inconclusive: 11.2 µM [inhibitor, partial curve] | 
COC(=O)c1ccc2c(c1)SC1=C(CCCC1=O)N2 | inconclusive: 12.6 µM [inhibitor, partial curve] | 
Cc1cc(C(=O)NC2Cc3ccccc3C2)c(C)o1 |  | inactive: 4.82% [at 9.22 µM]
CC1=C(C(=O)Nc2ccccc2)C(c2ccc(C)cc2)N=C(Nc2nc3ccccc3o2)N1 (stereo unspecified) | inconclusive: 12.6 µM [activator, partial curve, poor fit] | 
O=C(CSCc1ccc(Br)cc1)Nc1ccc(S(=O)(=O)N2CCCCCC2)cc1 | inconclusive: 35.5 µM [inhibitor, single point] | 
O=C(COC(=O)c1ccc2c(c1Cl)C(=O)c1ccccc1C2=O)NC1CCCCC1 | inactive | 
CCN(CC)C(=O)c1ccccc1NC(=O)c1cccc(S(=O)(=O)N(CC)CC)c1 | inactive | 
O=C(Nc1nccs1)c1csc2c1CCCC2 | inactive | 
CCOC(=O)C1=C(c2ccccc2)N=c2s/c(=C\c3ccc(O)cc3)c(=O)n2C1c1cccs1 (stereo unspecified) | inconclusive: 35.5 µM [inhibitor, single point] | 
C/C(=C\C(=O)O)C(=O)Nc1nccs1 | active: 0.112 µM | 
O=C1CN(CC(=O)N2CCOCC2)c2ccccc2O1 | inactive | 
Cc1ccc(S(=O)(=O)N2CCC(=O)N(CCOCc3ccc(Cl)cc3)CC2)cc1 | inconclusive: 35.5 µM [inhibitor, single point] | 
O=C(CCCCCN1C(=O)c2cccc3cccc(c23)C1=O)NCCO | inconclusive: 1.26 µM [activator, single point] | 
Cc1cc(C(=O)CCl)c(C)n1-c1cccc(S(=O)(=O)N2CCOCC2)c1 | inconclusive: 25.1 µM [inhibitor, single point] | 
